Test results: publication PMC2996883
No constants are given. Whether binding was seen depends on the method and setting. Binding seen in cells or lysates may run through a third protein. Some binding calls cover weakened binding; strength is not graded here. For part of these data: Tags and fused reporters may be left off the sequences shown. Each block holds one binder with its values, some of them ahead of it.

Legend:
Test in all cases: co-IP; HEK 293T cells co-transfected with an HA-tagged and a His6-Myc-tagged construct; lysate in 50 mM HEPES-NaOH pH 7.4, 150 mM NaCl, 10% glycerol, solubilised with 1% Triton X-100; anti-HA (HA-7) agarose overnight at 4 °C; immunoblot with anti-HA or anti-Myc
HA-ELOVL6 (human) = target: T1, HA-ELOVL6 (human) (UniProt Q9H5J4)
T1 sequence: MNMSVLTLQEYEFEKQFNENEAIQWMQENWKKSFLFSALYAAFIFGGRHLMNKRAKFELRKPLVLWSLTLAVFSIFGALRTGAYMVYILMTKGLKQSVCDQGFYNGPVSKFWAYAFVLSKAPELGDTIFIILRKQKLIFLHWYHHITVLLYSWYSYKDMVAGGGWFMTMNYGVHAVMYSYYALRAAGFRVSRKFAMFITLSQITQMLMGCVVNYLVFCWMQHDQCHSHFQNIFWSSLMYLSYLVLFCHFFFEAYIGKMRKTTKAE

HA-ELOVL5 (human) = target: T2, HA-ELOVL5 (human) (UniProt Q9NYP7)
T2 sequence: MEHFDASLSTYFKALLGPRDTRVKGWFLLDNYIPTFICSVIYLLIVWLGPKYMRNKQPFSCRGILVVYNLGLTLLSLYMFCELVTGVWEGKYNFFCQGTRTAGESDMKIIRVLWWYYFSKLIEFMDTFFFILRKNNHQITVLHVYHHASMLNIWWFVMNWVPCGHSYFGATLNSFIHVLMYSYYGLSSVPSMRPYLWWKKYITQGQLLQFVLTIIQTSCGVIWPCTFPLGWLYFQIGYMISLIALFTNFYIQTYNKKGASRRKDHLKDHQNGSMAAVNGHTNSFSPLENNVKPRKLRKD

HA-ELOVL1 (human) = target: T3, HA-ELOVL1 (human) (UniProt Q9BW60)
T3 sequence: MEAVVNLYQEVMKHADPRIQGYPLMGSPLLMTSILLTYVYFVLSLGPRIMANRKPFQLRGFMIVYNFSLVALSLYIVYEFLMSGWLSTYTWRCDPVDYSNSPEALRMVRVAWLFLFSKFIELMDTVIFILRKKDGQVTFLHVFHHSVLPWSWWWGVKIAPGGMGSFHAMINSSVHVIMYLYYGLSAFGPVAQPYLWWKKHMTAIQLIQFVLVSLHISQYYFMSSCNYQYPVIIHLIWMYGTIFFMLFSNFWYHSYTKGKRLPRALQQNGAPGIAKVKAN

HA-ELOVL2 (human) = target: T4, HA-ELOVL2 (human) (UniProt Q9NXB9)
T4 sequence: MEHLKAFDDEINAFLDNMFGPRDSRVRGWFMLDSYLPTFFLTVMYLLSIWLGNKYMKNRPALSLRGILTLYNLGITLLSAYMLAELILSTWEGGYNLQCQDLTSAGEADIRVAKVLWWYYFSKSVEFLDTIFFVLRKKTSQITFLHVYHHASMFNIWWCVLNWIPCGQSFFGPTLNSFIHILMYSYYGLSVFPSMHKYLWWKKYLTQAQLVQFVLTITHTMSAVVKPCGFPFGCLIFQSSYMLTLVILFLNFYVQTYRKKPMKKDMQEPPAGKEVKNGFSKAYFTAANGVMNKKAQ

HA-ELOVL7 (human) = target: T5, HA-ELOVL7 (human) (UniProt A1L3X0)
T5 sequence: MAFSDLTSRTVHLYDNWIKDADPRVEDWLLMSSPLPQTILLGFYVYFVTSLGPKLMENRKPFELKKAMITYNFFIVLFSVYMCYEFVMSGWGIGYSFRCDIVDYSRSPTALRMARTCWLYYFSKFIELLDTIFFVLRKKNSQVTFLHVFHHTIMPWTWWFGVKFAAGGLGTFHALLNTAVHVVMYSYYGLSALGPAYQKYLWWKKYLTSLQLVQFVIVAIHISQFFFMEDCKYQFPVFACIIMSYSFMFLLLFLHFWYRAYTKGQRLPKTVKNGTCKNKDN

HA-ELOVL3 (human) = target: T6, HA-ELOVL3 (human) (UniProt Q9HB03)
T6 sequence: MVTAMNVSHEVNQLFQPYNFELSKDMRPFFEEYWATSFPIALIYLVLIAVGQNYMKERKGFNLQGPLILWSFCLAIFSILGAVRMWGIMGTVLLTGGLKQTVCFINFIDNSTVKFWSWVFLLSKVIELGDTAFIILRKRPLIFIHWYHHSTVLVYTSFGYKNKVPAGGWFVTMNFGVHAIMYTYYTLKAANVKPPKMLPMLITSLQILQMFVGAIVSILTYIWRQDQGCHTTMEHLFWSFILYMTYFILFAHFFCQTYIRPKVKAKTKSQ

[1] = target: T7, HA-tagged 3-ketoacyl-CoA reductase (KAR) (UniProt Q53GQ0)
T7 sequence: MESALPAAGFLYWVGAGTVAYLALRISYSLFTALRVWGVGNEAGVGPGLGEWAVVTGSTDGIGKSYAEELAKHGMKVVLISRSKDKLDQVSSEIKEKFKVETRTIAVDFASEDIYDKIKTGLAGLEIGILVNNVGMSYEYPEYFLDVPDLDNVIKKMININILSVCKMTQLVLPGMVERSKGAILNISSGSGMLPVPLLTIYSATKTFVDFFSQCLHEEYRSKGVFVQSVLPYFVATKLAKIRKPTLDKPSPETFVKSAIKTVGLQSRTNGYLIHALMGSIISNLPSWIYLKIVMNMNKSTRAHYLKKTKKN

[2] = target: T8, elongase of very long-chain fatty acids-like 4 (ELOVL4), wild type (human) (UniProt Q9GZR5)
T8 sequence: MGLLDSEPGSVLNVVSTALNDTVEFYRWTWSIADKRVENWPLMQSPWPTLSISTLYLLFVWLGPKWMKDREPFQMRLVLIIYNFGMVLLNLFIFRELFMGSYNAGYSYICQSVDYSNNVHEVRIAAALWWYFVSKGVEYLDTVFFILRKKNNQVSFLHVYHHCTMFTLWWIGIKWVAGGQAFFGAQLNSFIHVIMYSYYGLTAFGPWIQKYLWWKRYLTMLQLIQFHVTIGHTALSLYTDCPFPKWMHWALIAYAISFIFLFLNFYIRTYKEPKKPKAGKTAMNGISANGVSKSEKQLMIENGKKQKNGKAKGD

[3] = target: T9, ELOVL4ΔC, C-terminally truncated ELOVL4 lacking the C-terminal 51 amino acid residues (human) (UniProt Q9GZR5)
T9 sequence: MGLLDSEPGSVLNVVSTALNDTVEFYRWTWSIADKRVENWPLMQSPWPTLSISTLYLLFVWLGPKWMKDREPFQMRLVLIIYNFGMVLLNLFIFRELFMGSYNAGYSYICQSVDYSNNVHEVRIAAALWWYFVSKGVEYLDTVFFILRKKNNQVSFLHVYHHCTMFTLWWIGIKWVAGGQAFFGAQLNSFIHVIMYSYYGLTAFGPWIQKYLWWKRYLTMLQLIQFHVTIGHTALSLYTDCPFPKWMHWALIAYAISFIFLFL

binding (HA-ELOVL6 (human)): binds weakly
binding (HA-ELOVL5 (human)): binds weakly
binding (HA-ELOVL1 (human)): binds weakly
binding (HA-ELOVL2 (human)): binds weakly
binding (HA-ELOVL7 (human)): binds weakly
binding (HA-ELOVL3 (human)): binds weakly
binding [1]: binds
binding [2]: binds weakly
binding [3]: binds
B1: elongase of very long-chain fatty acids-like 4 (ELOVL4), wild type (enzyme, UniProt Q9GZR5 1-314)
chain: T8 sequence

binding (HA-ELOVL6 (human)): binds
binding (HA-ELOVL5 (human)): binds
binding (HA-ELOVL1 (human)): binds
binding (HA-ELOVL2 (human)): binds
binding (HA-ELOVL7 (human)): binds
binding (HA-ELOVL3 (human)): binds
binding [1]: binds
binding [2]: binds
binding [3]: binds
B2: ELOVL4ΔC, C-terminally truncated ELOVL4 lacking the C-terminal 51 amino acid residues (domain or fragment, UniProt Q9GZR5 1-263)
chain: T9 sequence
